Experiments:
[1] = Vapor-liquid equilibrium still, separation of 1,1,1-trichloroethane from ethanol; assay type: physicochemical
[2] = Vapor-liquid equilibrium still, separation of 1,1,1-trichloroethane from n-propanol; assay type: physicochemical

## CC(=O)N(C)C [Dimethylacetamide]
[1]
  Relative Volatility: 2.1
[2]
  Relative Volatility: 2.8

— patent US5196094A, “Separation of 1,1,1-trichloroethane from the lower alcohols by extractive distillation” (priority 1991, dated 1993)
